Assay [1] deals with CCNE1 (Homo sapiens, UniProt P24864). Briefly: HiBit Assay Protocol for CCNE1 (HIBIT protein quantification, degradation). The conditions noted are these: HEK293-CCNE1-Hibit cells, compound treatment for 6 hours. In general terms: The HiBiT peptide binds its large partner to form an active luciferase.
Assay [2] addresses CDK9 (Homo sapiens, UniProt P50750). Briefly: HiBit Assay Protocol for CDK9 (HIBIT protein quantification, degradation). The conditions noted are these: HEK293-CDK9-Hibit cells, compound treatment for 6 hours.
Assay [3] concerns the target CDK2 (Homo sapiens, UniProt P24941). Briefly: HiBit Assay Protocol for CDK2 (HIBIT protein quantification, degradation). The conditions noted are these: HEK293-CDK2-Hibit cells, compound treatment for 6 hours; for DC50: read-out: CDK2 HIBIT Protein Quantification DC50, ABS DC50.

Chains of the proteins cited; added tags and fusions are not shown.
UniProt P24864, whole entry: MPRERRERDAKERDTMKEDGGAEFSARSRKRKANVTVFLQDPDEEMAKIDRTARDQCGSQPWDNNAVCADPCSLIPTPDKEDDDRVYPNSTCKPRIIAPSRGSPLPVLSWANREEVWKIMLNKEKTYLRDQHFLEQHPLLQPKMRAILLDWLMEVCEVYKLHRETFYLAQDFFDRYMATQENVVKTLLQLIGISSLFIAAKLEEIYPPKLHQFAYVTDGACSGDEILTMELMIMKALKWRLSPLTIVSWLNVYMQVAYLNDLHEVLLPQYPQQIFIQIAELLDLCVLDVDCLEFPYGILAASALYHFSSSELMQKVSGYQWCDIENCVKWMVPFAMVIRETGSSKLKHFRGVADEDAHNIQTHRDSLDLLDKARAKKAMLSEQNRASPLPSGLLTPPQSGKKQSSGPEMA
UniProt P50750, whole entry: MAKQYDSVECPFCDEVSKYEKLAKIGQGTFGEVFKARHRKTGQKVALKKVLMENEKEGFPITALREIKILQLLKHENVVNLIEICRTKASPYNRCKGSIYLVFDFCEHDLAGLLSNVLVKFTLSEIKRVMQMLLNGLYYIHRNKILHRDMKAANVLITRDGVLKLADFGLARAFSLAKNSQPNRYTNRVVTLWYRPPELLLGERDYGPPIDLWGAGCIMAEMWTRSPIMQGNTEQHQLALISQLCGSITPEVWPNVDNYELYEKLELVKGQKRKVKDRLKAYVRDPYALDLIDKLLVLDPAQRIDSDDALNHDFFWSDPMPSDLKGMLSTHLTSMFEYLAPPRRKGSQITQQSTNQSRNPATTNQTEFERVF

The source of these data is patent US20260070917A1, “CYCLIN DEPENDENT KINASE DEGRADERS AND METHODS OF USE THEREOF” (Differentiated Therapeutics Inc, priority 2023, published 2026).

The match of structure and compound is tentative.

The term DC50 denotes the midpoint of the concentration-degradation curve.

Consider `CC1CCCC1N1C(=O)C2(CC2)c2cnc(NC3CCN(S(=O)(=O)N4CC5C4CCN5C(=O)CCCCCc4cccc5c4n(C)c(=O)n5C4CCC(=O)NC4=O)CC3)nc21` (stereo not drawn), for which the “CCNE1 HIBIT Protein Quantification Maximum” value in assay [1] stood at 15%. Also, the “CDK9 HIBIT Protein Quantification Maximum” value in assay [2] amounted to 33%. Further, in assay [3], the “CDK2 HIBIT Protein Quantification Maximum” value amounted to 65% and the DC50 was 11 nM.

In the case of `CC1CCCC1N1C(=O)C2(CC2)c2cnc(NC3CCN(S(=O)(=O)N4CC(N(C)C(=O)CCCCCCCc5cccc6c5n(C)c(=O)n6C5CCC(=O)NC5=O)C4)CC3)nc21` (stereo not drawn), the “CCNE1 HIBIT Protein Quantification Maximum” value in assay [1] came to 18%. Besides, the “CDK9 HIBIT Protein Quantification Maximum” value in assay [2] was determined as 41%. Also, in assay [3], the “CDK2 HIBIT Protein Quantification Maximum” value is on record as 59% and the half-maximal degradation concentration (DC50) came out at 8 nM.

Regarding `CC1CCCC1N1C(=O)C2(CC2)c2cnc(NC3CCN(S(=O)(=O)N4CC(N(C)C(=O)CCCCCc5ccc6c(c5)n(C)c(=O)n6C5CCC(=O)NC5=O)C4)CC3)nc21` (stereo not drawn), the “CCNE1 HIBIT Protein Quantification Maximum” value in assay [1] came out at 19%. The “CDK9 HIBIT Protein Quantification Maximum” value in assay [2] was determined as 41%. In assay [3], the “CDK2 HIBIT Protein Quantification Maximum” value came out at 52% and the 50% degradation concentration (DC50) was 3 nM.
